# The supplement of paper PMC9135407
# “And” between values parts separate entries of the source, which are not always exact repeats. Identical values can stand only once. Counter-ions that a name gives are not always drawn. ± gives the standard deviation of the averaged measurements. Some of the results follow. Part of the spread comes from offsets between plates or batches.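 Assay uses culture-activated primary human stellate myofibroblasts; lipid droplet recovery indicates inactivation. Measured: proportion of Hoechst-counted cells over a plate-specific Bodipy cutoff, duplicate wells, DMSO and nortriptyline as per-plate negative and positive controls. A hit scores, control-normalized, above the plate's top-tenth-percentile nortriptyline wells or ranks among its three best wells. Final well concentrations not reported.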
# System: primary human hepatic stellate cells (donor 1)
# Experiment: percent Bodipy-positive cells; higher = more lipid droplet accumulation
# Details: 48 h
# [1] = library stock concentration: 3.33 mM
# [2] = library stock concentration: 10 mM
# [3] = library stock concentration: 1 mM
# [4] = library stock concentration: 5.1 mM
compound,measurement,setting,value
NNc1nncc2ccccc12 [Hydralazine hydrochloride],percent Bodipy-positive cells,,22.8 ± 4.7%
C=CC(=O)Nc1cccc(Oc2nc(Nc3ccc(N4CCN(C)CC4)cc3OC)ncc2Cl)c1,percent Bodipy-positive cells,library stock concentration: 80 uM,12.2 ± 2.6%
same,percent Bodipy-positive cells,library stock concentration: 400 uM,20.9 ± 9.8%
same,percent Bodipy-positive cells,library stock concentration: 2 mM,33.5 ± 4.6%
same,percent Bodipy-positive cells,[1],56.1 ± 10%
O=C(/C=C/c1ccc(O)c(O)c1)OCCc1ccccc1 [Caffeic Acid Phenethyl Ester],percent Bodipy-positive cells,[1],48.1 ± 1.4%
same,percent Bodipy-positive cells,[2],75.6 ± 11%
O=C(/C=C/c1ccc(O)c(O)c1)OCCc1ccccc1 [Caffeic Acid phenylethyl ester],percent Bodipy-positive cells,[3],10.5 ± 3%
Oc1cccc(-c2nc(N3CCOCC3)c3oc4ncccc4c3n2)c1,percent Bodipy-positive cells,[2],87.8 ± 1.9%
NCC(O)CC(=O)O (stereo unspecified) [Aminohydroxybutyric acid],percent Bodipy-positive cells,[2],27.8 ± 8.6%
CC(C)CC(CC(=O)NO)C(=O)N[C@@H](Cc1ccc2ccccc2c1)C(=O)N[C@@H](C)C(=O)NCCN (stereo partly specified),percent Bodipy-positive cells,[1],36.5 ± 9.1%
same,percent Bodipy-positive cells,[2],52.2 ± 7.8%
O=C1OC2(c3ccc(O)cc3Oc3cc(OS(=O)(=O)c4c(F)c(F)c(F)c(F)c4F)ccc32)c2ccccc21 (stereo unspecified) [Pentafluorobenzenesulfonyl fluorescein],percent Bodipy-positive cells,[3],9.71 ± 2.9%
C[C@H](CCC(=O)O)[C@H]1CC[C@H]2[C@@H]3[C@H](O)C[C@@H]4C[C@H](O)CC[C@]4(C)[C@H]3CC[C@]12C [Chenodiol],percent Bodipy-positive cells,,25 ± 0.94%
same,percent Bodipy-positive cells,[4],11.9 ± 2.2%
same,percent Bodipy-positive cells,[2],9.92 ± 0.61%
C[C@H](CCC(=O)O)[C@H]1CC[C@H]2[C@@H]3[C@H](O)C[C@@H]4C[C@H](O)CC[C@]4(C)[C@H]3CC[C@]12C [Chenodeoxycholic Acid],percent Bodipy-positive cells,[1],8.36 ± 2.9%
same,percent Bodipy-positive cells,[2],12.6 ± 6%
COc1ccc2c(c1)CCC1C2CC[C@@]2(C)C1CC[C@@H]2NCCCCCCN1C(=O)CCC1=O (stereo partly specified),percent Bodipy-positive cells,[2],89.2 ± 6.8%
C[N+](C)(C)CC[N+]1(C)Cc2c(Cl)c(Cl)c(Cl)c(Cl)c2C1 [Chlorisondamine diiodide],percent Bodipy-positive cells,[2],9.93 ± 3.2%
CN1CCN(c2c(F)cc3c(=O)c(C(=O)O)cn(CCF)c3c2F)CC1 [Fleroxacin],percent Bodipy-positive cells,library stock concentration: 5.4 mM,15.4 ± 7.9%
COc1ccc(CCN(C)CCCC(C#N)(c2cc(OC)c(OC)c(OC)c2)C(C)C)cc1OC (stereo unspecified),percent Bodipy-positive cells,[2],73.3 ± 4%
Nc1cc(C(Cl)=C(Cl)Cl)c(S(N)(=O)=O)cc1S(N)(=O)=O [Clorsulon],percent Bodipy-positive cells,,33.6 ± 7.8%
same,percent Bodipy-positive cells,[1],13.4 ± 2.7%
same,percent Bodipy-positive cells,library stock concentration: 5.3 mM,12.6 ± 7.7%
same,percent Bodipy-positive cells,[2],19.8 ± 9.9%
Cc1ccccc1CN1C2=NCCN2C(=O)C2=C1CCN(Cc1ccccc1)C2,percent Bodipy-positive cells,[1],31.634 ± 0.0092%
same,percent Bodipy-positive cells,[2],44.1 ± 13%
Cc1ccc2c(c1)C(=O)C1(O)CCN(c3ccccc3)C1=N2 (stereo unspecified),percent Bodipy-positive cells,[3],18.8 ± 6.1%
same,percent Bodipy-positive cells,[2],6.81 ± 2.7%
Cc1ccc2c(c1)C(=O)C1(O)CCN(c3ccccc3)C1=N2 (stereo unspecified) [Blebbistatin],percent Bodipy-positive cells,library stock concentration: 17.1 mM,21.5 ± 1.4%
CC[C@H](C)C(=O)O[C@H]1CCC=C2C=C[C@H](C)[C@H](CC[C@@H]3C[C@@H](O)CC(=O)O3)[C@H]21 [mevastatin],percent Bodipy-positive cells,[2],43.4 ± 5%
CC[C@H](C)C(=O)O[C@H]1CCC=C2C=C[C@H](C)[C@H](CC[C@@H]3C[C@@H](O)CC(=O)O3)[C@H]21 [Mevastatin],percent Bodipy-positive cells,[1],20.5 ± 1.3%
same,percent Bodipy-positive cells,[4],29.2 ± 15%
O=C1NC(=O)C(c2c[nH]c3ccccc23)=C1c1c[nH]c2ccccc12 [Bisindolylmaleimide IV],percent Bodipy-positive cells,[3],5.75 ± 1.6%
same,percent Bodipy-positive cells,[1],7.11 ± 0.35%
COc1c2occc2c(OC)c2c(=O)cc(C)oc12 [Khellin],percent Bodipy-positive cells,,32 ± 15%
same,percent Bodipy-positive cells,[2],55.6 ± 5.6%
C1CNCCN1 [Piperazine],percent Bodipy-positive cells,[2],10.1 ± 0.65%
same,percent Bodipy-positive cells,library stock concentration: 23.2 mM,9.93 ± 0.19%
CCCCC[C@H](O)/C=C/[C@H]1CC[C@H](O)[C@@H]1CCCCCCC(=O)O [11-deoxy Prostaglandin F1.alpha.],percent Bodipy-positive cells,[3],16.5 ± 1.3%
CCCCC[C@H](O)/C=C/[C@@H]1[C@@H](CCCCCCCO)[C@@H](O)C[C@H]1O [Prostaglandin F1.alpha. Alcohol],percent Bodipy-positive cells,[3],12.7 ± 4.9%
Cc1nc(N)sc1-c1ccnc(Nc2ccc(N3CCOCC3)cc2)n1,percent Bodipy-positive cells,[2],96.61 ± 0.73%
O=c1oc2ccccc2c(O)c1Cc1c(O)c2ccccc2oc1=O [Dicumarol],percent Bodipy-positive cells,,8.36 ± 2.1%
same,percent Bodipy-positive cells,library stock concentration: 5.9 mM,1.58 ± 0.88%
same,percent Bodipy-positive cells,[2],8.8 ± 4%
O=c1oc2ccccc2c(O)c1Cc1c(O)c2ccccc2oc1=O [Dicoumarol],percent Bodipy-positive cells,[1],5.58 ± 1.4%
same,percent Bodipy-positive cells,[2],26.2 ± 4.2%
CS(=O)(=O)N1CCc2c(-c3cnc(N)nc3)nc(N3CCOCC3)nc21,percent Bodipy-positive cells,[1],4.82 ± 2.6%
same,percent Bodipy-positive cells,[2],34.2 ± 31%
CC(=O)[C@]1(O)Cc2c(O)c3c(c(O)c2[C@@H](O[C@H]2C[C@H](N)[C@H](O)[C@H](C)O2)C1)C(=O)c1ccccc1C3=O [Idarubicin],percent Bodipy-positive cells,library stock concentration: 4 mM,100%
same,percent Bodipy-positive cells,[2],100%
CC(=O)[C@]1(O)Cc2c(O)c3c(c(O)c2[C@@H](O[C@H]2C[C@H](N)[C@H](O)[C@H](C)O2)C1)C(=O)c1ccccc1C3=O,percent Bodipy-positive cells,[2],100%
CC(=O)[C@]1(O)Cc2c(O)c3c(c(O)c2[C@@H](O[C@H]2C[C@H](N)[C@H](O)[C@H](C)O2)C1)C(=O)c1ccccc1C3=O [Idarubicin HCl],percent Bodipy-positive cells,[1],100%
same,percent Bodipy-positive cells,[2],100%
COc1cccc(NC(=O)/C=C/c2ccc(Cl)cc2)c1,percent Bodipy-positive cells,[2],68 ± 6%
O=C1c2ccccc2C(=O)c2c1ccc(O)c2O [Alizarin],percent Bodipy-positive cells,[1],6.94 ± 1.2%
same,percent Bodipy-positive cells,[2],19.3% and 37.2%
"CCCCC/C=C/C=C1/C=CC(=O)[C@@H]1C/C=C\CCCC(=O)O [15-deoxy-.DELTA.12,14-Prostaglandin A2]",percent Bodipy-positive cells,[3],13.9 ± 2.1%
N[C@@H]1[C@H]2CN(c3nc4c(cc3F)c(=O)c(C(=O)O)cn4-c3ccc(F)cc3F)C[C@@H]12 [Trovafloxacin mesylate],percent Bodipy-positive cells,[2],51.5 ± 6.8%
c1ccc(CNc2nc(NCc3ccccc3)c3ccccc3n2)cc1,percent Bodipy-positive cells,[1],92.5 ± 5.6%
same,percent Bodipy-positive cells,[2],100%
CC(/C=C1\SC(=S)N(CC(=O)O)C1=O)=C\c1ccccc1 [Epalrestat],percent Bodipy-positive cells,[1],7.3 ± 2.1%
same,percent Bodipy-positive cells,[2],14.7 ± 2.5%
CCC(=O)OCN1C(=O)C=CC1=O,percent Bodipy-positive cells,[2],8.61 ± 2.5%
C[C@H](N)C(=O)CCCCCC(=O)O [KAPA (hydrochloride)],percent Bodipy-positive cells,[3],8.13 ± 0.93%
NS(=O)(=O)C#Cc1ccccc1 [Pifithrin->m],percent Bodipy-positive cells,[2],98.3 ± 1.9%
CN1CCN(CCCN2c3ccccc3Sc3ccc(Cl)cc32)CC1 [Prochlorperazine edisylate],percent Bodipy-positive cells,library stock concentration: 3.5 mM,70.7 ± 3.8%
same,percent Bodipy-positive cells,[2],53.5 ± 5.6%
CN1CCN(CCCN2c3ccccc3Sc3ccc(Cl)cc32)CC1 [Prochlorperazine dimaleate],percent Bodipy-positive cells,,69.5 ± 7.9%
same,percent Bodipy-positive cells,[2],79.6 ± 2.9%
COC(=O)CCSCc1ccc(-c2onc(C)c2NC(=O)OC(C)c2ccccc2Cl)cc1 (stereo unspecified),percent Bodipy-positive cells,[1],20.8 ± 5.8%
same,percent Bodipy-positive cells,[2],15.4 ± 9%
Cc1nc(=O)c2cc(CN(C)c3ccc(C(=O)N[C@@H](CCC(=O)O)C(=O)O)s3)ccc2[nH]1,percent Bodipy-positive cells,[2],15 ± 7.9%
Cc1nc(=O)c2cc(CN(C)c3ccc(C(=O)N[C@@H](CCC(=O)O)C(=O)O)s3)ccc2[nH]1 [Raltitrexed],percent Bodipy-positive cells,[1],14.5 ± 2.8%
same,percent Bodipy-positive cells,[2],19.2 ± 1.5%
